Primary screen of a compound library

By UniProt entry, the sequences of proteins in these tests, tags left out.
UniProt E9BF75, entry or part of it: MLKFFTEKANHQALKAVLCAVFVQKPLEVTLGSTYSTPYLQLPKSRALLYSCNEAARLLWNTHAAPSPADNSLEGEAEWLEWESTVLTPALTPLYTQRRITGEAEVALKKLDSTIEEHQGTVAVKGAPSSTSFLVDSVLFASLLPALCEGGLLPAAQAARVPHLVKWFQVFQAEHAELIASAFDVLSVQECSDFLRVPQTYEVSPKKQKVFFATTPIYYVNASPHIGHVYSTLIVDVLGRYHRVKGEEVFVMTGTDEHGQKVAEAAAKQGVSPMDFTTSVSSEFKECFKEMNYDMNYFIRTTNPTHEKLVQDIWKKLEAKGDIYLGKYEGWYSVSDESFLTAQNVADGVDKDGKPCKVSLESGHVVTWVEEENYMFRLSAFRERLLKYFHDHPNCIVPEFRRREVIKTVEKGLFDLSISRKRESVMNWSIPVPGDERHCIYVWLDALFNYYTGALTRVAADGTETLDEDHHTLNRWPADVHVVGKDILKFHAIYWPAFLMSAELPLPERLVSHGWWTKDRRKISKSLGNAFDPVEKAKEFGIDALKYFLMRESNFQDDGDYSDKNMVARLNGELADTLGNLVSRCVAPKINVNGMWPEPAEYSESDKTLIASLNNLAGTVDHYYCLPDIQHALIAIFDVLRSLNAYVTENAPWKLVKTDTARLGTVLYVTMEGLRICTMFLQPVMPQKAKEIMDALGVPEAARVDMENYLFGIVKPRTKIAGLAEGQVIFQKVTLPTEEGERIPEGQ

The values are deposited in ChEMBL (CHEMBL3988442, “University of Dundee, Small-Polar-MMV Screening Library” (2021)).

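Methionyl-tRNA synthetase (putative), Leishmania donovani (UniProt E9BF75). Primary screen of methionyl-tRNA synthetase; the read-out is not stated. The test concentration is not given. The values are filed as inhibition. Size under these conditions: about 68,000 compounds, about 24 of them at 50% or above in at least one test.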

Results are percentages, as filed. How 0% and 100% were set is not recorded. Most values in the screen are low, and negative values occur. This is an unselected part of the compounds tested.

| # | SMILES | Inhibition |
|---|---|---|
| 1 | `Cc1ncsc1CCN(C)C(=O)c1c(O)cccc1O` | 8.38 |
| 2 | `CC(C)(C)c1ncc(C(=O)NCc2ccccc2CN2CCCC2)s1` | 19.05 |
| 3 | `CN(C)[C@@H]1CN(C(=O)Cc2cccs2)[C@@H]2CCCO[C@H]12` | 15.06 |
| 4 | `CCC1=N[C@@]2(CC[C@@H]3CN(S(C)(=O)=O)C[C@@H]32)C(=O)N1CC(C)C` | 12.77 |
| 5 | `CC(C)CC(=O)N1CCCC1c1cc(CO)[nH]n1` (stereo unspecified) | 14.6 |
| 6 | `O=C(O)[C@@H]1CN(C(=O)Cc2ccccc2Cl)C[C@H]1C1CC1` | 4.673 |
| 7 | `Cc1nc(S(=O)(=O)N2CCc3[nH]nc(CCC(C)C)c3C2)cn1C` | 7.474 |
| 8 | `Cc1ccc(C(=O)N2CCN3C[C@H](Oc4cccc(F)c4)C[C@H]3C2)cn1` | 15.31 |
| 9 | `CC(C)C1SCC(=O)Nc2c1cnn2-c1ccc(F)cc1` (stereo unspecified) | 19.11 |
| 10 | `COc1cccc(CN2CCC3(CCN(C(=O)[C@H]4CCCO4)CC3)C2)c1` | 13.8 |
| 11 | `Nc1nnc(CCCn2nnc(-c3ccccc3F)n2)s1` | -24.86 |
| 12 | `c1cnc(N2CCC3(CCN(CC4CC4)CC3)CC2)nc1` | 15.88 |
| 13 | `COc1ccc2nc(C3CC3)cc(C(=O)NCc3ncnn3C)c2c1` | 14.54 |
| 14 | `Cc1[nH]c2ccc(CNc3cc(C(=O)NC(C)C)ccn3)cc2c1C` | 16.88 |
| 15 | `CN1CC2(CCN(C(=O)CCc3nc4cccnc4n3C)C2)OC1=O` (stereo unspecified) | 6.625 |
| 16 | `Cc1c(C(=O)N2CCN(C)CC2)n(C)c2ccc(Cl)cc12` | 17.69 |
| 17 | `Cc1cccc(C)c1OC1CN(Cc2cnc(-c3ccco3)nc2)C1` | 14.93 |
| 18 | `Cc1ccnc(N2CCN(C3CCS(=O)(=O)C3)CC2)n1` (stereo unspecified) | 7.796 |
| 19 | `CC(C)(C)c1n[nH]c(C2CN(C(=O)Cn3ccccc3=O)CCO2)n1` (stereo unspecified) | 17.66 |
| 20 | `COCc1nc(CNC(=O)C(C)n2ccnc2C(C)C)no1` (stereo unspecified) | 3.015 |
| 21 | `O=C(Nc1ccccn1)c1ccc(F)c(S(=O)(=O)NC2CC2)c1` | 10.89 |
| 22 | `CC(C)c1cc(CNC(=O)Nc2cc(F)cc(N3CCCC3)c2)on1` | 4.899 |
| 23 | `COc1ncnc2c1CCN(Cc1nccs1)CC2` | 10.22 |
| 24 | `CC(C)c1noc(C(C)N2CCN(Cc3cccs3)CC2)n1` (stereo unspecified) | 7.429 |
| 25 | `Cc1ccc(C(=O)NCC(C)CN2CCCC2=O)c(=O)[nH]1` (stereo unspecified) | 17.37 |
| 26 | `CCCS(=O)(=O)NCC1OCCc2cn(CC3CCOCC3)nc21` (stereo unspecified) | 2.92 |
| 27 | `COc1ccc(C[C@H]2CNCC[C@@H]2OCC2CC2)cc1` | 18.49 |
| 28 | `CCCOC1CCCN(C(=O)c2cnc(-c3csc(C)n3)nc2O)C1` (stereo unspecified) | 12.28 |
| 29 | `CCN1CCCC(C)(C(=O)NCCCc2nc(C)cs2)C1` (stereo unspecified) | 8.939 |
| 30 | `c1ccc(CCN2CCN(c3ccc4nncn4n3)CC2)cc1` | 20.45 |
| 31 | `CN(C)c1ccc(C(=O)N2CCCN(Cc3cscn3)CC2)nn1` | 9.29 |
| 32 | `COCCC(=O)N1CCCC1c1csc(Nc2ccccn2)n1` (stereo unspecified) | 4.941 |
| 33 | `Cc1nnc(NCc2cccnc2N(C)C)c(C#N)c1C` | 7.302 |
| 34 | `CCS(=O)(=O)N1CCc2c(COC)cncc2C1` | 3.618 |
| 35 | `O=C(NCc1ccco1)[C@@]12CCO[C@@H]1CCN(Cc1ccccn1)C2` | 16.3 |
| 36 | `Cc1cc(C(=O)Nc2cnn(CC(=O)NC3CCCC3)c2)c(C)s1` | 14.18 |
| 37 | `CCn1cc(CN2CCCN(C(=O)c3ccoc3)CC2)cn1` | 7.735 |
| 38 | `O=C(c1cccnc1)N1Cc2[nH]nc(COCCO)c2C1` | 13.41 |
| 39 | `O=C(c1ccccc1)N1CCC2(CC1)CC(Oc1ccccc1)CO2` (stereo unspecified) | 10.53 |
| 40 | `O=S(=O)(C1CC1)N1CCn2cc(CNc3ccccn3)nc2C1` | 10.75 |
| 41 | `O=C(OCC1CCCN(C(=O)c2ccccc2)C1)c1cscn1` (stereo unspecified) | 3.593 |
| 42 | `O=C1CCC2(CCN(c3cccc(C(F)(F)F)n3)CC2)CN1CCO` | -2.308 |
| 43 | `Cn1cc(C(=O)NCc2cn3c(n2)CN(CC2CCOCC2)CC3)cn1` | 13.33 |
| 44 | `CC(=O)N1CC(=O)N(c2cnn(C)c2)CC12CCN(Cc1ccco1)C2` (stereo unspecified) | 9.936 |
| 45 | `CCCc1nc(N2CCC(CCO)CC2)c2cnn(C)c2n1` | 7.639 |
| 46 | `CNC(=O)CC1CC2(CCN(Cc3nccs3)CC2)c2ccccc21` (stereo unspecified) | 10.48 |
| 47 | `CCCC(=O)NC1CCCN(C(=O)c2ccc(C)nc2)C1` (stereo unspecified) | 8.075 |
| 48 | `COc1cccc(COCC(=O)N2CCCC2Cn2cccn2)c1` (stereo unspecified) | 16.57 |
| 49 | `Cc1nc(CC(=O)N2CCCCC2Cn2cccn2)cs1` (stereo unspecified) | 10.69 |
| 50 | `CC(=O)N1CCN(c2cc(C3CCNCC3)ccn2)CC1` | 18.09 |
| 51 | `CCC(CN1CCOCC1)n1cncc1-c1ccc2c(c1)CCCN2C` (stereo unspecified) | 14.36 |
| 52 | `Cc1ccsc1C(=O)N1CC2CC1(C(=O)NCc1ccco1)C2` | 5 |
| 53 | `CCn1ncnc1C1CC(=O)NCc2nc(N3CCOCC3)sc21` (stereo unspecified) | 17.34 |
| 54 | `Cc1cnn(CCNCc2cc(C)no2)c1` | 9.938 |
| 55 | `CCCN1CCN(C(=O)c2cccnc2-n2cncn2)CC1` | 15.22 |
| 56 | `CNC(=O)c1cc2c(nc1NCC(C)C)CCN(S(=O)(=O)N(C)C)CC2` | 7.216 |
| 57 | `COc1ccc(CNC(C)Cn2cccn2)cc1F` (stereo unspecified) | 13.96 |
| 58 | `CC(C)Cc1noc(CN(C)c2ncccn2)n1` | 6.005 |
| 59 | `CC(C)CCCC1CN(C(=O)c2cnc[nH]2)CCO1` (stereo unspecified) | 5.516 |
| 60 | `CC(CN1CCOCC1)NC(=O)c1cc(Cl)c2c(c1)OCCO2` (stereo unspecified) | 14.14 |
| 61 | `Cn1cccc1C(=O)N1CCCN(CCCc2ccccc2)CC1` | 17.5 |
| 62 | `O=C(NCc1cccnc1N1CCCC(O)C1)c1ccc2[nH]nnc2c1` (stereo unspecified) | 17.34 |
| 63 | `COc1cc(CN2CCCC2)ccc1OC12CCCN(CC1)C2` (stereo unspecified) | 24.73 |
| 64 | `COc1ncccc1CN1CC[C@]2(C[C@@H](OCc3ccccn3)CO2)C1` | 10.09 |
| 65 | `COc1ccc(CN(CCC#N)CCN2CCOCC2)cc1OC` | 17.74 |
| 66 | `O=C(O)c1cc2c(c(S(=O)(=O)N(CCCO)c3ccccc3)c1)CCC2` | 17.25 |
| 67 | `CN(C)CCCNC(=O)c1ccnc(OCc2ccccc2)c1` | 7.246 |
| 68 | `O=C(Nc1cc(CCC2CCN(CCO)CC2)ccn1)c1ccccn1` | 0.9317 |
| 69 | `CSCCC(=O)N1CCCN(Cc2cnn(C(C)C)c2)CC1` | 11.11 |
| 70 | `O=C(c1ccc(-n2cccn2)cc1Cl)N1CCCC(O)(CO)C1` (stereo unspecified) | -11.03 |
| 71 | `CC(=O)N1CCCC(c2nccnc2Nc2nc(C)cc(C)n2)C1` (stereo unspecified) | 7.862 |
| 72 | `CCN(CC)S(=O)(=O)N1CCCC(c2nccn2Cc2cccnc2)C1` (stereo unspecified) | 12.21 |
| 73 | `CC(=O)N1CCN([C@@H]2CC[C@@H](NC(=O)c3ccc(C)nc3)[C@H]2O)CC1` | 16.38 |
| 74 | `CCn1ncc2[nH]c(-c3cc4c(cc3OC)OCO4)nc21` | 20.5 |
| 75 | `O=C(CN1CCCC(Cn2cncn2)C1)NCCOc1ccccc1` (stereo unspecified) | 9.091 |
| 76 | `O=C(NCC(=O)N1CCCC(c2ccccc2)CC1)c1ccoc1` (stereo unspecified) | 15.85 |
| 77 | `Cc1nc(N2CCN(C(=O)c3cccnc3)CC2)cc(-n2cccc2)n1` | 10.56 |
| 78 | `COCC(=O)N1C[C@@H]2CCCO[C@@H]2[C@H](N(C)Cc2ccco2)C1` | -6.25 |
| 79 | `Fc1ccc(OCCCNC2=NCCN2)cc1` | 4.444 |
| 80 | `O=C(CCc1nccs1)N1CCN(c2cccnn2)CC1` | 18.06 |

The last 5 entries again:

SMILES	Inhibition
O=C(NCC(=O)N1CCCC(c2ccccc2)CC1)c1ccoc1 (stereo unspecified)	15.85
Cc1nc(N2CCN(C(=O)c3cccnc3)CC2)cc(-n2cccc2)n1	10.56
COCC(=O)N1C[C@@H]2CCCO[C@@H]2[C@H](N(C)Cc2ccco2)C1	-6.25
Fc1ccc(OCCCNC2=NCCN2)cc1	4.444
O=C(CCc1nccs1)N1CCN(c2cccnn2)CC1	18.06